Results as given in the supplement of paper PMC8326762, “A Small Molecule Inhibitor of Pex3–Pex19 Interaction Disrupts Glycosome Biogenesis and Causes Lethality in Trypanosoma brucei” (Frontiers in Cell and Developmental Biology, 2021).
Structures can show the parent of a compound that is named as a salt. The list shows a part of the results. Single values of this set are uncertain.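 Yeast growth was measured as optical density at 600 nm. Two-hybrid strains grew without histidine, so growth depended on Pex3–Pex19 binding. A compound was trypanosome-selective if it reduced growth of the trypanosome-pair strain by over 65% and of the human-pair strain by under 65%.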

System: Saccharomyces cerevisiae HF7c pdr5Δ
Assay: general growth inhibition of yeast HF7c pdr5Δ in -Leu -Trp medium, relative to DMSO; higher = stronger general growth inhibition
Details: 100 µM; 24 h

**Q.** How did the general growth inhibition turn out when `CN(CC[C@@H](Oc1ccc(C(F)(F)F)cc1)c1ccccc1)CC(=O)[O-].[Li+]` was run?
**A.** 40.3%

**Q.** `C=CCn1c(=O)c2c(nc(-c3ccc(S(=O)(=O)O)cc3)n2C)n(C)c1=O` [1-Allyl-3,7-dimethyl-8-p-sulfophenylxanthine] was tested. Which general growth inhibition did it give?
**A.** 12.1%

**Q.** `O=C(NOCC1CC1)c1cc(Br)c(F)c(F)c1Nc1ccc(I)cc1Cl` was tested. Which general growth inhibition did it give?
**A.** 32.8%

**Q.** Which general growth inhibition does the source give for `Cc1cn[nH]c1` [4-Methylpyrazole hydrochloride] here?
**A.** 19%

**Q.** For `C[N+](C)(C)CCOP(=O)(O)OP(=O)([O-])OC[C@H]1O[C@@H](n2ccc(N)nc2=O)[C@H](O)[C@@H]1O` [Cytidine 5'-diphosphocholine sodium salt hydrate], which general growth inhibition is on record?
**A.** 37.1%

**Q.** How did the general growth inhibition turn out when `OC[C@H]1O[C@@H](n2cnc3c(NC4CCCC4)ncnc32)[C@H](O)[C@@H]1O` [N6-Cyclopentyladenosine] was run?
**A.** 34.9%

**Q.** For `O=C(CCc1ccncc1)NNC(=O)N1Cc2ccccc2Oc2ccc(Cl)cc21`, which general growth inhibition is on record?
**A.** 51.1%

**Q.** `CN(C)CCN(Cc1cccs1)c1ccccn1` [Methapyrilene hydrochloride] was tested. Which general growth inhibition did it give?
**A.** 32.4%

**Q.** How did the general growth inhibition turn out when `COc1ccc(Cl)cc1C(=O)NCCc1ccc(S(=O)(=O)NC(=O)NC2CCCCC2)cc1` [Glybenclamide] was run?
**A.** 11.1%

**Q.** `CSc1ccc2c(c1)C(N1CCN(C)CC1)Cc1ccccc1S2` (centres undefined) [Methiothepin mesylate] was tested. Which general growth inhibition did it give?
**A.** 41.6%

**Q.** With `CC(C)NC[C@H](O)COc1cccc2[nH]ccc12` [S(-)-Pindolol] as the compound, how does the general growth inhibition read?
**A.** 27.8%

**Q.** For `C=CCc1ccccc1OCC(O)CNC(C)C` (centres undefined) [Alprenolol hydrochloride], which general growth inhibition is on record?
**A.** -6.16%

**Q.** Which general growth inhibition does the source give for `CC(C)(C)c1ccc(C(O)CCCN2CCC(C(O)(c3ccccc3)c3ccccc3)CC2)cc1` (centres undefined) [Terfenadine] here?
**A.** 70.8%

**Q.** With `CC[C@]1(O)C[C@H]2CN(CCc3c([nH]c4ccccc34)[C@@](C(=O)OC)(c3cc4c(cc3OC)N(C=O)[C@H]3[C@@](O)(C(=O)OC)[C@H](OC(C)=O)[C@]5(CC)C=CCN6CC[C@]43[C@@H]65)C2)C1` [Vincristine sulfate] as the compound, how does the general growth inhibition read?
**A.** 43.9%

**Q.** With `CC(C)OC(=O)C(C)(C)Oc1ccc(C(=O)c2ccc(Cl)cc2)cc1` [Fenofibrate] as the compound, how does the general growth inhibition read?
**A.** 34.3%

**Q.** Which general growth inhibition does the source give for `COC(=O)C1=C(C)NC(C)=C(C(=O)OCCN(C)Cc2ccccc2)C1c1cccc([N+](=O)[O-])c1` (centres undefined) [Nicardipine hydrochloride] here?
**A.** 39.4%

**Q.** How did the general growth inhibition turn out when `N[C@@H](Cc1ccc(O)c(O)c1)C(=O)O` [L-3,4-Dihydroxyphenylalanine] was run?
**A.** 35.2%

**Q.** `CC(=O)NC[C@H]1CN(c2ccc(N3CCOCC3)c(F)c2)C(=O)O1` [Linezolid] was tested. Which general growth inhibition did it give?
**A.** 41.3%

**Q.** With `C[C@]12CCC(=O)C=C1CC[C@@H]1[C@@H]2C(=O)C[C@@]2(C)[C@H]1CC[C@]2(O)C(=O)CO` [Cortisone] as the compound, how does the general growth inhibition read?
**A.** 8.71%

**Q.** `CN1C2CCCC1CC(NC(=O)c1nn(C)c3ccccc13)C2` (centres undefined) [Granisetron hydrochloride] was tested. Which general growth inhibition did it give?
**A.** 52.4%

**Q.** With `Nc1nc(N)c2nc(-c3ccccc3)c(N)nc2n1` [Triamterene] as the compound, how does the general growth inhibition read?
**A.** 4.09%

**Q.** `Cc1cn(C2C=CC(CO)O2)c(=O)[nH]c1=O` (centres undefined) [2',3'-didehydro-3'-deoxythymidine] was tested. Which general growth inhibition did it give?
**A.** 34.1%

**Q.** `CCCc1nn(C)c2c(=O)[nH]c(-c3cc(S(=O)(=O)N4CCN(C)CC4)ccc3OCC)nc12` [Sildenafil citrate salt] was tested. Which general growth inhibition did it give?
**A.** 44.4%

**Q.** With `COc1ccc(C2CNC(=O)C2)cc1OC1CCCC1` (centres undefined) [Rolipram] as the compound, how does the general growth inhibition read?
**A.** 51.4%

**Q.** `Oc1ccccc1O` [Pyrocatechol] was tested. Which general growth inhibition did it give?
**A.** 46.8%

**Q.** `NC/C=C/C(=O)O` [(E)-4-amino-2-butenoic acid] was tested. Which general growth inhibition did it give?
**A.** 53.8%

**Q.** How did the general growth inhibition turn out when `O=C(O)[C@H](CC(=O)N1C[C@H]2CCCC[C@H]2C1)Cc1ccccc1` [Mitiglinide calcium] was run?
**A.** 45.6%

**Q.** For `CC(C)NC[C@H](O)COc1ccc(CC(N)=O)cc1` [S(-)-Atenolol], which general growth inhibition is on record?
**A.** 33.6%

**Q.** With `COC(=O)C1=C(C)NC(C)=C(C(=O)OC(C)(C)CN(C)CCC(c2ccccc2)c2ccccc2)C1c1cccc([N+](=O)[O-])c1` (centres undefined) [Lercanidipine hydrochloride hemihydrate] as the compound, how does the general growth inhibition read?
**A.** 23.2%

**Q.** How did the general growth inhibition turn out when `CCCCS(=N)(=O)CCC(N)C(=O)O` (racemic) [DL-Buthionine-[S,R]-sulfoximine] was run?
**A.** 10.6%

**Q.** Which general growth inhibition does the source give for `COc1ccccc1N1CCN(CC(O)COc2cccc3ccccc23)CC1` (centres undefined) [Naftopidil dihydrochloride] here?
**A.** 35.7%

**Q.** How did the general growth inhibition turn out when `N[C@H](CO)C(=O)O` [D-Serine] was run?
**A.** 49.2%

**Q.** How did the general growth inhibition turn out when `O=C(O)C1CCCNC1` (racemic) [(±)-Nipecotic acid] was run?
**A.** 40.6%

**Q.** How did the general growth inhibition turn out when `Nc1ccc(CCNc2ncnc3c2ncn3C2OC(CO)C(O)C2O)cc1` (centres undefined) [N6-2-(4-Aminophenyl)ethyladenosine] was run?
**A.** 47.7%

**Q.** How did the general growth inhibition turn out when `O=C(O)C1=CCNCC1` [Isoguvacine hydrochloride] was run?
**A.** 24%

**Q.** Which general growth inhibition does the source give for `COc1ccc(CCn2nnnc2C2(c3ccc(C)cc3)CC2)cc1` [Mephetyl tetrazole] here?
**A.** 41.3%

**Q.** With `O=C(CCNNC(=O)c1ccncc1)NCc1ccccc1` [Nialamide] as the compound, how does the general growth inhibition read?
**A.** 47.4%

**Q.** With `O=Nc1ccc2oc(=O)ccc2c1` [6-Nitroso-1,2-benzopyrone] as the compound, how does the general growth inhibition read?
**A.** 88.4%

**Q.** How did the general growth inhibition turn out when `O=c1[nH]c(=S)[nH]c(-c2ccccc2)c1Cc1c(O)ccc2ccccc12` [Cambinol] was run?
**A.** 28.6%
